Reference: PubChem BioAssay AID1259308 (NCATS, 2017)
This is a random part of about 59,000 reagents. About 1,510 of all reagents (2.6%) were called active. 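Calls use total luciferase alone and ignore viability, so some active siRNAs may act by altering cell number.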 Further read-outs or replicates are left out here.

- Test: 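Genes whose loss raises luciferase production in HEK293 cells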 (primary screen)
- System: human HEK293 embryonic kidney cells stably expressing firefly luciferase (HEK-CMV-Luc2-Hygro)
- Knock-down reagent: single siRNA against human genes, 0.8 pmol siRNA per well
- Duration: 72 h
- Measurement: 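Luciferase light (ONE-Glo) measured on one replicate plate set and viability (CellTiter-Glo) on the other, scaled to a negative control siRNA, with robust z-scores and luciferase per cell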
- Scale: total luciferase, z-score: higher = more reporter protein produced
- Active means: 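An siRNA counts as active if its total luciferase robust z-score exceeds 3; genes with two or more such siRNAs out of three were retested with fresh siRNAs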
- Calls: active = raised luciferase; inactive = no rise

With knock-down of PLCD4 [SID160752732], the screen gave total luciferase, z-score -0.355; inactive.
PLCD4 [SID160752733] showed total luciferase, z-score 1.15; inactive.
PLCD4 [SID160752735] scored total luciferase, z-score -1.55; inactive.
Depletion of UPP1 [SID160718639] gave: total luciferase, z-score 0.178; inactive.
Depletion of UPP1 [SID160718640] gave: total luciferase, z-score 1.86; inactive.
For UPP1 [SID160718641] the deposit lists total luciferase, z-score -3; inactive.
SKP1 [SID160716767] showed total luciferase, z-score 0.115; inactive.
Depletion of SKP1 [SID160716769] came out at: total luciferase, z-score -1.11; inactive.
After knock-down of SKP1 [SID160716770] the results were total luciferase, z-score 0.105; inactive.
After knock-down of GRXCR2 [SID160733808], the screen gave total luciferase, z-score 0.574; inactive.
Against GRXCR2 [SID160768813] the deposit lists total luciferase, z-score 0.516; inactive.
GRXCR2 [SID160768814] gave total luciferase, z-score -1.51; inactive.

Ordered by “total luciferase, z-score” (lowest first): 2 of the entries above.
PLCD4 [SID160752732] | total luciferase, z-score = -0.355; Outcome = inactive
PLCD4 [SID160752733] | total luciferase, z-score = 1.15; Outcome = inactive
